Source: article PMC10347550 (Journal of the American Chemical Society, 2023)

Key:
peptide made by a vendor = conditions: whole synthesis, LC-MS
[1] = Fmoc solid-phase peptide synthesis; conditions: whole synthesis
[2] = Singlet oxygen generation quantum yield, 1275 nm emission; assay type: physicochemical; conditions: direct detection of 1275 nm emission
[3] = Photosubstitution quantum yields by UV-vis under green light; assay type: physicochemical; conditions: 515 nm LED, 25 °C

For Ac-MRADH-NH2, the “purity (crude or final not stated)” value (peptide made by a vendor) was 95% purity.

In the case of Ac-MRGDH-NH2, the “crude LC-MS purity” value [1] is reported as over 90%.

For “[Ru(Ph2phen)2(κ^S,κ^N-(Ac-MRGDH-NH2))]Cl2 (sidechain bridge or staple) [Δ-[1]Cl2] [cyclic ruthenium-peptide conjugate, Ac-MRGDH-NH2 coordinated via Met S and His N]”, the “ΦΔ, singlet oxygen generation quantum yield” value [2] was 0.059.

For “[Ru(Ph2phen)2(κ^S,κ^N-(Ac-MRGDH-NH2))]Cl2 (sidechain bridge or staple) [Λ-[1]Cl2] [cyclic ruthenium-peptide conjugate, Ac-MRGDH-NH2 coordinated via Met S and His N]”, the “ΦΔ, singlet oxygen generation quantum yield” value [2] was 0.046, the “ΦPS1, first photosubstitution quantum yield” value ([3]; in H2O) was 0.13 and the “ΦPS2, second photosubstitution quantum yield” value ([3]; in H2O) was 0.0007. For the same substance, the “ΦPS1, first photosubstitution quantum yield” value ([3]; in H2O/CH3CN 1:1 mixture) was 0.25 and the “ΦPS2, second photosubstitution quantum yield” value ([3]; in H2O/CH3CN 1:1 mixture) was 0.0024.
